According to PubChem BioAssay AID1665 (Sanford-Burnham Center for Chemical Genomics, 2009):
Where “and” joins values, the source holds several entries; their conditions need not be identical. Identical values can stand only once. The list shows a part of the results.

test: beta-catenin nuclear localization change in HeLa – imaging, HeLa cells, immunofluorescence, high-content, primary screen (AID 1665); conditions: HeLa beta-catenin nuclear translocation, measured here: cell count, cytotoxicity flag, at 5 µM

Structure (SMILES) | cell count
O=C(O)CNc1ccc([As](=O)(O)O)cc1 | 1200 cells
O=[N+]([O-])c1cccc(NC2=NCC(CBr)S2)c1 (stereo not drawn) | 1350 cells
O=[N+]([O-])c1ncn(CCn2ncnc2[N+](=O)[O-])n1 | 1100 cells
CC(C)(C)C(=O)NC(Sc1ccncn1)C(Cl)(Cl)Cl (stereo not drawn) | 1300 cells
CP(=O)(OC12CC3CC(CC(C3)C1)C2)OC12CC3CC(CC(C3)C1)C2 | 1190 cells
O=C(Nc1cc([As](=O)(O)O)ccc1O)c1ccccc1 | 1160 cells
CCOC(=O)c1ccc(NP(C)(=O)Oc2ccc(Cl)cc2)cc1 (stereo not drawn) | 941 cells
CC1CCN(C(=O)Oc2c(Cl)cc(Cl)c3cccnc23)CC1 | 1240 cells
CN(C)C(=O)OCCc1n(C)cc[n+]1C | 967 cells
CC(C)=N/N=C(\N)N[N+](=O)[O-] | 1480 cells
CN(C)C(=O)c1c([N+](=O)[O-])cc([N+](=O)[O-])cc1[N+](=O)[O-] | 1100 cells
CP(=O)(Nc1ccc(Cl)cc1)Oc1ccc(F)cc1 (stereo not drawn) | 1380 cells
CCN(/C(=N/P(=O)(N1CCOCC1)N1CCOCC1)N1CCOCC1)c1ccc(OC)cc1 | 1080 cells
C[N+]1=C2C=CC=CC=C2SC12C([N+](=O)[O-])=CC([N+](=O)[O-])=C[C-]2[N+](=O)[O-] (stereo not drawn) | 1390 cells
Nc1ccc([As](=O)(O)c2ccc(N)cc2)cc1 | 1110 cells
CC(C)(C)c1ccc(OP(C)(=O)O)cc1 | 958 cells
COc1ccccc1OP(C)(=O)Nc1ccccc1Br (stereo not drawn) | 1070 cells
O=[N+]([O-])c1cc([N+](=O)[O-])c(CCNc2ccccc2)c([N+](=O)[O-])c1 | 473 cells
CCc1nc2c(n1)c1c(non1O)c1c2no[n+]1[O-] | 1360 cells
CCc1ccc(OP(C)(=O)Nc2cccnc2)cc1 (stereo not drawn) | 1110 cells

Structure (SMILES) | cell count
CP(=O)(Oc1ccccc1)N1CCOC1=O (stereo not drawn) | 785 cells
Cc1ccc(NP(=O)(Oc2ccccc2)Oc2ccccc2)nc1 | 1160 cells
O=C(OCCCN1CCCC1)C(O)(c1ccccc1)C1CCCCC1 (stereo not drawn) | 1300 cells
COc1ccccc1OP(C)(=O)Nc1c(C)n(C)n(-c2ccccc2)c1=O (stereo not drawn) | 892 cells
O=[N+]([O-])c1cccc2n[nH]nc12 | 1180 cells
COc1ccc(C2=NCC(CBr)S2)cc1 (stereo not drawn) | 1150 cells
CCN(CC)CC(O)COC(=O)C(O)(c1ccccc1)C1CCCCC1 (stereo not drawn) | 978 cells
CCc1ccc(OP(C)(=O)O)cc1 | 1420 cells
COc1ccccc1OP(C)(=O)Nc1ccc(C)cc1C (stereo not drawn) | 1370 cells
CP(=O)(Nc1ccccn1)Oc1ccccc1 (stereo not drawn) | 1090 cells
Cc1c2non([O-])c-2c(C)[n+](=O)[n+]1[O-] | 716 cells
O=C(NC(Sc1ccncn1)C(Cl)(Cl)Cl)c1ccccc1 (stereo not drawn) | 1010 cells
O=[N+]([O-])c1cc([N+](=O)[O-])c(Nc2ccccn2)c([N+](=O)[O-])c1 | 985 cells
Nc1cc(N)c2nonc2c1[N+](=O)[O-] | 1330 cells
Cc1c(NP(C)(=O)Oc2ccc(C(C)C)cc2)c(=O)n(-c2ccccc2)n1C (stereo not drawn) | 1340 cells
CN(C)CCOC(=O)C(O)(c1ccccc1)C1CCCC1 (stereo not drawn) | 1190 cells
Clc1ccc(Cl)c(NC2=NCC(CBr)S2)c1 (stereo not drawn) | 1150 cells
CN1CCCC(OC(=O)C(c2ccccc2)c2ccccc2)C1 (stereo not drawn) | 553 cells
Cc1ccc(OP(=O)(Nc2nccs2)Oc2ccc(C)cc2)cc1 | 1390 cells
COc1ccccc1OP(=O)(Nc1ccc(C)cn1)Oc1ccccc1OC | 947 cells

Structure (SMILES) | cell count
Cc1ccc(N/C(=N/P(=O)(N2CCOCC2)N2CCOCC2)N2CCOCC2)cc1 | 1140 cells
COc1ccccc1OP(C)(=O)Nc1ccc(Br)cc1 (stereo not drawn) | 1370 cells
NC(=O)c1cc([N+](=O)[O-])cc([N+](=O)[O-])c1N | 1090 cells
CP(=O)(OCCOc1ccccc1)OCCOc1ccccc1 | 1070 cells
CP(=O)(Nc1ccc(Cl)cc1Cl)Oc1ccccc1 (stereo not drawn) | 1090 cells
Nc1cccc2ccc([As](=O)(O)O)cc12 | 1220 cells
CCN(N=Nc1nonc1N)c1nonc1N | 1070 cells
Cc1nc2ccc3ccccc3c2o1.O=[N+]([O-])c1cc([N+](=O)[O-])c(O)c([N+](=O)[O-])c1 | 807 cells
COc1ccc(OP(C)(=O)Nc2ccccc2Br)cc1 (stereo not drawn) | 1180 cells
Cc1ccc(NP(=O)(Oc2ccccc2F)Oc2ccccc2F)nc1 | 1350 cells
COc1ccccc1OP(C)(=O)Nc1ccc(C)c(C)c1 (stereo not drawn) | 1180 cells
CCOP(=O)(Nc1ccccc1)OCC | 1130 cells and 1270 cells
Cc1cc(SC(NC(=O)c2ccc(F)cc2)C(Cl)(Cl)Cl)ncn1 (stereo not drawn) | 1160 cells
Cc1cc(C)cc(OP(C)(=O)Nc2cccc(C(F)(F)F)c2)c1 (stereo not drawn) | 845 cells
O=P(Nc1nc2ccc(Cl)cc2s1)(c1ccccc1)c1ccccc1 | 1300 cells
O=C(O)c1ccccc1[As](=O)(O)O | 1120 cells
CC(=O)Nc1ccc([As](=O)(O)O)cc1 | 1180 cells
CN(C)C(=O)Oc1noc2ccccc12 | 1380 cells
